The text below walks through data of publication PMC11822115.

Amino acid sequences for entries named in this document (tags omitted). Residues count along the entry.
UniProt P08581, residues 25-1390: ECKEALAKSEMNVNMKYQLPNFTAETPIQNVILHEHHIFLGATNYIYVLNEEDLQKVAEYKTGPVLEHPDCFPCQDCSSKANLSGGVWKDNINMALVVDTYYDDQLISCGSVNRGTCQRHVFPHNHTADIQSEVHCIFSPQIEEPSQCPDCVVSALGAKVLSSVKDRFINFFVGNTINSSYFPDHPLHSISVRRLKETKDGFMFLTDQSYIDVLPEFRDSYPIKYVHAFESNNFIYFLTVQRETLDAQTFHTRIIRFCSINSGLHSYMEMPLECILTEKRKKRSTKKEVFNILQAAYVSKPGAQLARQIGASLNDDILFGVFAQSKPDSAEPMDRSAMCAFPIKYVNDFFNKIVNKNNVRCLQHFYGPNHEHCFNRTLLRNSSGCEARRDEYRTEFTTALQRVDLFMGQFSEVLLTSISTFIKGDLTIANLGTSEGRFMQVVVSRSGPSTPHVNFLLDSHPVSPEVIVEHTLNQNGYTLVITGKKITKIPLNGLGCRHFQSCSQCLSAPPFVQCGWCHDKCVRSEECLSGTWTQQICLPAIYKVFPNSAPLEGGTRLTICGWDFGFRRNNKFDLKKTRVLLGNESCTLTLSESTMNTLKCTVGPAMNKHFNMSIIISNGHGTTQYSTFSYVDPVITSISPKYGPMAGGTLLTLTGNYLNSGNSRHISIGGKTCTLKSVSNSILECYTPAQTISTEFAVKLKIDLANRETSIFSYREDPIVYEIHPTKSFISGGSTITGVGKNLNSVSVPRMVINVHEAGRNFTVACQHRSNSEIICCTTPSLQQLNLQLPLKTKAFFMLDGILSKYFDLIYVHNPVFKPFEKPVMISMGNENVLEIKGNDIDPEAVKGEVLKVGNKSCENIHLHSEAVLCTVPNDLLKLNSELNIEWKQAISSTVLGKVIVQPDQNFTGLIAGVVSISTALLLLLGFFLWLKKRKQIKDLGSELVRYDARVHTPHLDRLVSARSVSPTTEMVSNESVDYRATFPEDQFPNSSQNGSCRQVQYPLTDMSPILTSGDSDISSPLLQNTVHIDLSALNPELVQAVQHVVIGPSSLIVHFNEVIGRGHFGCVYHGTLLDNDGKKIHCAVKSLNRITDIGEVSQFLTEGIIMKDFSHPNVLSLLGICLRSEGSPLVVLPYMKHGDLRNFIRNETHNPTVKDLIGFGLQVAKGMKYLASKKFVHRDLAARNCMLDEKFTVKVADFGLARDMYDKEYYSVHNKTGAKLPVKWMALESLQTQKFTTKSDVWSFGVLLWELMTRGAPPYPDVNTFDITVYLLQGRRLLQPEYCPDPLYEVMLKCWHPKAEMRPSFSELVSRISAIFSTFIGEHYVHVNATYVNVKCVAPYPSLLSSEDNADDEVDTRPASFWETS
UniProt P21860, residues 20-1342: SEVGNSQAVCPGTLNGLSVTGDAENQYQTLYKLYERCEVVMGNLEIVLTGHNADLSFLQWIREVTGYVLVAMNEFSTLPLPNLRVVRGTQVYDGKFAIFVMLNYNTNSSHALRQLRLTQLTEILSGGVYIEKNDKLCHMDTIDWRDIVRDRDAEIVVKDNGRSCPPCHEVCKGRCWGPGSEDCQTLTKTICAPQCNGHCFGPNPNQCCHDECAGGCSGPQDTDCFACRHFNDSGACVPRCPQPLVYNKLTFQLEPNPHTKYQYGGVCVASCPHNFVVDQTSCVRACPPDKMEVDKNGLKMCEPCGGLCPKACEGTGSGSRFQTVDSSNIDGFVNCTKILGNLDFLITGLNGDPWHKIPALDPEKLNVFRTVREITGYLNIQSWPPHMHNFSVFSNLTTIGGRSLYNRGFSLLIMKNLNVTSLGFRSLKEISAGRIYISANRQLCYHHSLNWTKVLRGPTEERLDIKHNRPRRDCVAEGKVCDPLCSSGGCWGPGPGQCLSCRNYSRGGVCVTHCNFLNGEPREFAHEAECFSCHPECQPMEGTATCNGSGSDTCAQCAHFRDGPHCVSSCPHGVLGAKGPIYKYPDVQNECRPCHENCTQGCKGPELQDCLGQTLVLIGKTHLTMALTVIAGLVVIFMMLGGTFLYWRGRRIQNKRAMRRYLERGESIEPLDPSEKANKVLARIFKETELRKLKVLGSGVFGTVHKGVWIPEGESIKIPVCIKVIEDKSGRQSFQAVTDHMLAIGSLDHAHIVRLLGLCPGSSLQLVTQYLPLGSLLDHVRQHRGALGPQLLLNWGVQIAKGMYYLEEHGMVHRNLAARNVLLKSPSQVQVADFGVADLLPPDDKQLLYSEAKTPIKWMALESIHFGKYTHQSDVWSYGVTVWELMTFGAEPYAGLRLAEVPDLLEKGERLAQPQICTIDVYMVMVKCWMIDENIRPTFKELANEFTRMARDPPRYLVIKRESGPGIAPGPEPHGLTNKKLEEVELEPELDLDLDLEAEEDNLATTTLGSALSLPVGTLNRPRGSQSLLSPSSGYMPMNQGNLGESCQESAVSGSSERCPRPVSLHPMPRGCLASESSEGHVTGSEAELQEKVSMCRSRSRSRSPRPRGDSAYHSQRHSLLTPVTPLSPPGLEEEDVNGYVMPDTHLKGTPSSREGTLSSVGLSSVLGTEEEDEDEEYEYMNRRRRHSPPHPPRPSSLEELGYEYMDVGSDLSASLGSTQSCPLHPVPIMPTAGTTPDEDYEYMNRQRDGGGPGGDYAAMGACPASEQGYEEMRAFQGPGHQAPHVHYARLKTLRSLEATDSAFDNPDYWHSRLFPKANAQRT

Numbering of substitutions follows the chain as printed. These are yes or no findings as the source states them, for the method shown. For some assays here: Binding seen in cells or lysates may run through a third protein. Some binding calls cover weakened binding; strength is not graded here.

For test [1], the target named is PlexinD1 (human (endogenous in LNCaP, C4-2B^ENZR, 22Rv1)) (UniProt Q9Y4D7). The test is described as follows: proximity ligation; endogenous proteins in fixed 22Rv1 (and C4-2B^ENZR) cells treated with D1SP (1 uM, 2 h) or PBS as vehicle; Duolink In Situ Red kit; cytoplasmic fluorescence per cell.
The target is the same in test [2]. The test is described as follows: proximity ligation; endogenous proteins in fixed cells (LNCaP and C4-2B^ENZR); pairs of primary antibodies, Duolink In Situ Red kit; cytoplasmic fluorescence per cell; for PlexinD1-ErbB3/cMet C4-2B^ENZR cells also treated with recombinant Sema3E/Sema3C (200-500 ng/ml, 4 h) or SEMA3E/SEMA3C siRNA (10 uM, 48 h).
For test [3] the target is unchanged. In words: co-IP; 22Rv1 lysate (1 mg total protein), PlexinD1 antibody or control IgG at 4 C overnight, Protein G magnetic beads, blots for PlexinD1, ErbB3, cMet.
The target of the next test is T1, D1SP (human) (UniProt Q9Y4D7).
T1 sequence: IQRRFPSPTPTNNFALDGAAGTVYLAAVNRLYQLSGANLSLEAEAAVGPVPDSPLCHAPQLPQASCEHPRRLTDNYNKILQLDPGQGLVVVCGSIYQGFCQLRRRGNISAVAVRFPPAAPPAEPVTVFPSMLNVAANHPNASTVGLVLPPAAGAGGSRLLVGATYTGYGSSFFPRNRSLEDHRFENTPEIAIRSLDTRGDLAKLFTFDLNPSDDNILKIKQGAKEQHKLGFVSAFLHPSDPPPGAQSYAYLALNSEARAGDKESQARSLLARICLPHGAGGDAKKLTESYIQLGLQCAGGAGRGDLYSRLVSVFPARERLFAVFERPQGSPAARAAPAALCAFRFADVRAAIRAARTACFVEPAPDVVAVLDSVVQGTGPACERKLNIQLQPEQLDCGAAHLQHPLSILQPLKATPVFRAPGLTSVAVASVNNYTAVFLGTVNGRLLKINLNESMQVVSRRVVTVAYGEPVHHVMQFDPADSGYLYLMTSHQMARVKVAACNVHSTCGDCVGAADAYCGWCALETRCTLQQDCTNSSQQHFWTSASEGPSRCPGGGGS
The test is described as follows: co-IP; 10 ug of recombinant PlexinD1, Sema3C or Sema3E with 10 ug D1SP in IP buffer, 4 C, 4 h; Fc-antibody bound beads; blots for PlexinD1, Sema3C or Sema3E; both purified.

The target of test [4] is PlexinD1 (human (endogenous in LNCaP, C4-2B^ENZR, 22Rv1)) (UniProt Q9Y4D7). In words: proximity ligation; endogenous proteins in fixed cells (LNCaP and C4-2B^ENZR); pairs of primary antibodies, Duolink In Situ Red kit; cytoplasmic fluorescence per cell; for PlexinD1-ErbB3/cMet C4-2B^ENZR cells also treated with recombinant Sema3E/Sema3C (200-500 ng/ml, 4 h) or SEMA3E/SEMA3C siRNA (10 uM, 48 h). The source holds these as a separate data set.

Test [5] shares this target. In words: proximity ligation; endogenous proteins in fixed 22Rv1 (and C4-2B^ENZR) cells treated with D1SP (1 uM, 2 h) or PBS as vehicle; Duolink In Situ Red kit; cytoplasmic fluorescence per cell. The source holds these as a separate data set.

With “cMet (from UniProt P08581 25-1390) (receptor)”, the binding result in test [1], in test [2] and in test [3] was “binds” each time.
Regarding “ErbB3 (from UniProt P21860 20-1342) (receptor)”, the binding result in test [1], in test [2] and in test [3] was “binds” throughout.

B1: Recombinant human Sema3C protein (ligand, UniProt Q99985 21-751)
chain: GSSQPQARVYLTFDELRETKTSEYFSLSHHPLDYRILLMDEDQDRIYVGSKDHILSLNINNISQEALSVFWPASTIKVEECKMAGKDPTHGCGNFVRVIQTFNRTHLYVCGSGAFSPVCTYLNRGRRSEDQVFMIDSKCESGKGRCSFNPNVNTVSVMINEELFSGMYIDFMGTDAAIFRSLTKRNAVRTDQHNSKWLSEPMFVDAHVIPDGTDPNDAKVYFFFKEKLTDNNRSTKQIHSMIARICPNDTGGLRSLVNKWTTFLKARLVCSVTDEDGPETHFDELEDVFLLETDNPRTTLVYGIFTTSSSVFKGSAVCVYHLSDIQTVFNGPFAHKEGPNHQLISYQGRIPYPRPGTCPGGAFTPNMRTTKEFPDDVVTFIRNHPLMYNSIYPIHKRPLIVRIGTDYKYTKIAVDRVNAADGRYHVLFLGTDRGTVQKVVVLPTNNSVSGELILEELEVFKNHAPITTMKISSKKQQLYVSSNEGVSQVSLHRCHIYGTACADCCLARDPYCAWDGHSCSRFYPTGKRRSRRQDVRHGNPLTQCRGFNLKAYRNAAEIVQYGVKNNTTFLECAPKSPQASIKWLLQKDKDRRKEVKLNERIIATSQGLLIRSVQGSDQGLYHCIATENSFKQTIAKINFKVLDSEMVAVVTDKWSPWTWASSVRALPFHPKDIMGAFSHSEMQMINQYCKDTRQQHQQGDESQKMRGDYGKLKALINSRKSRNRRNQLPES
Take B1: the binding result with D1SP (human) was “binds”.

B2: Recombinant human PlexinD1 protein (receptor, UniProt Q9Y4D7 47-1271)
chain: LEIQRRFPSPTPTNNFALDGAAGTVYLAAVNRLYQLSGANLSLEAEAAVGPVPDSPLCHAPQLPQASCEHPRRLTDNYNKILQLDPGQGLVVVCGSIYQGFCQLRRRGNISAVAVRFPPAAPPAEPVTVFPSMLNVAANHPNASTVGLVLPPAAGAGGSRLLVGATYTGYGSSFFPRNRSLEDHRFENTPEIAIRSLDTRGDLAKLFTFDLNPSDDNILKIKQGAKEQHKLGFVSAFLHPSDPPPGAQSYAYLALNSEARAGDKESQARSLLARICLPHGAGGDAKKLTESYIQLGLQCAGGAGRGDLYSRLVSVFPARERLFAVFERPQGSPAARAAPAALCAFRFADVRAAIRAARTACFVEPAPDVVAVLDSVVQGTGPACERKLNIQLQPEQLDCGAAHLQHPLSILQPLKATPVFRAPGLTSVAVASVNNYTAVFLGTVNGRLLKINLNESMQVVSRRVVTVAYGEPVHHVMQFDPADSGYLYLMTSHQMARVKVAACNVHSTCGDCVGAADAYCGWCALETRCTLQQDCTNSSQQHFWTSASEGPSRCPAMTVLPSEIDVRQEYPGMILQISGSLPSLSGMEMACDYGNNIRTVARVPGPAFGHQIAYCNLLPRDQFPPFPPNQDHVTVEMSVRVNGRNIVKANFTIYDCSRTAQVYPHTACTSCLSAQWPCFWCSQQHSCVSNQSRCEASPNPTSPQDCPRTLLSPLAPVPTGGSQNILVPLANTAFFQGAALECSFGLEEIFEAVWVNESVVRCDQVVLHTTRKSQVFPLSLQLKGRPARFLDSPEPMTVMVYNCAMGSPDCSQCLGREDLGHLCMWSDGCRLRGPLQPMAGTCPAPEIHAIEPLSGPLDGGTLLTIRGRNLGRRLSDVAHGVWIGGVACEPLPDRYTVSEEIVCVTGPAPGPLSGVVTVNASKEGKSRDRFSYVLPLVHSLEPTMGPKAGGTRITIHGNDLHVGSELQVLVNDTDPCTELMRTDTSIACTMPEGALPAPVPVCVRFERRGCVHGNLTFWYMQNPVITAISPRRSPVSGGRTITVAGERFHMVQNVSMAVHHIGREPTLCKVLNSTLITCPSPGALSNASAPVDFFINGRAYADEVAVAEELLDPEEAQRGSRFRLDYLPNPQFSTAKREKWIKHHPGEPLTLVIHKEQDSLGLQSHEYRVKIGQVSCDIQIVSDRIIHCSVNESLGAAVGQLPITIQVGNFNQTIATLQLGGSETA
As to B2, the binding result with D1SP (human) was “binds”.

B3: Sema3E (ligand, UniProt O15041 26-775)
chain: ADTTHPRLRLSHKELLNLNRTSIFHSPFGFLDLHTMLLDEYQERLFVGGRDLVYSLSLERISDGYKEIHWPSTALKMEECIMKGKDAGECANYVRVLHHYNRTHLLTCGTGAFDPVCAFIRVGYHLEDPLFHLESPRSERGRGRCPFDPSSSFISTLIGSELFAGLYSDYWSRDAAIFRSMGRLAHIRTEHDDERLLKEPKFVGSYMIPDNEDRDDNKVYFFFTEKALEAENNAHAIYTRVGRLCVNDVGGQRILVNKWSTFLKARLVCSVPGMNGIDTYFDELEDVFLLPTRDHKNPVIFGLFNTTSNIFRGHAICVYHMSSIRAAFNGPYAHKEGPEYHWSVYEGKVPYPRPGSCASKVNGGRYGTTKDYPDDAIRFARSHPLMYQAIKPAHKKPILVKTDGKYNLKQIAVDRVEAEDGQYDVLFIGTDNGIVLKVITIYNQEMESMEEVILEELQIFKDPVPIISMEISSKRQQLYIGSASAVAQVRFHHCDMYGSACADCCLARDPYCAWDGISCSRYYPTGTHAKRRFRRQDVRHGNAAQQCFGQQFVGDALDKTEEHLAYGIENNSTLLECTPRSLQAKVIWFVQKGRETRKEEVKTDDRVVKMDLGLLFLRLHKSDAGTYFCQTVEHSFVHTVRKITLEVVEEEKVEDMFNKDDEEDRHHRMPCPAQSSISQGAKPWYKEFLQLIGYSNFQRVEEYCEKVWCTDRKRKKLKMSPSKWKYANPQEKKLRSKPEHYRLPRHTLDS
With B3, the binding result in test [4] and in test [5] was “binds” each time.

B4: Recombinant human Sema3E protein (ligand, UniProt O15041 26-775)
chain: B3 chain
As to B4, in the test with D1SP (human), the binding entry is given as “binds”.
